These are yes or no findings as the source states them, for the method shown. In cells and extracts the contact can be indirect. Some entries that bind do so weakly or less than the wild type.

By UniProt entry, the sequences of proteins in these tests, tags left out.
UniProt Q00420: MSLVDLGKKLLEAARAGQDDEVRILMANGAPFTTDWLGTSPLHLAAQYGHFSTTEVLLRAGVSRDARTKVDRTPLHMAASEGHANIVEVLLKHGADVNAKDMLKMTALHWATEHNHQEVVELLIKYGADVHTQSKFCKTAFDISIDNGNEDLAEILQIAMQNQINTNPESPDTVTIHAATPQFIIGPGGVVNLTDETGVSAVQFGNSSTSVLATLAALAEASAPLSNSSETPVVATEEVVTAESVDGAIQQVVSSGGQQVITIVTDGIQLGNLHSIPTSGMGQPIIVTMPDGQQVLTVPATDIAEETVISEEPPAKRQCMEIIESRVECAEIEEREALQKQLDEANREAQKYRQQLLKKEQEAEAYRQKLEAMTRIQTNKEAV

This test has as its target GABPB1 (mouse (endogenous in E13.5 embryonic right ventricles)) (UniProt Q00420). The experiment in a line: co-IP.

B1: GABPA (protein, UniProt Q00422 1-454)
chain: MTKREAEELIEIEIDGTEKAECTEESIVEQTYTPAECVSQAIDINEPIGNLKKLLEPRLQCSLDAHEICLQDIQLDPDRSLFDQGVKTDGTVQLSVQVISYQGMEPKLNILEIVKTAETVEVVIDPDAHHAEAEAHLVEEAQVITLDGTKHITTISDETSEQVTRWAAALEGYRKEQERLGIPYDPIHWSTDQVLHWVVWVMKEFSMTDIDLTTLNISGRELCSLNQEDFFQRVPRGEILWSHLELLRKYVLASQEQQMNEIVTIDQPVQIIPASVPPATPTTIKVINSSAKAAKVQRSPRISGEDRSSPGNRTGNNGQIQLWQFLLELLTDKDARDCISWVGDEGEFKLNQPELVAQKWGQRKNKPTMNYEKLSRALRYYYDGDMICKVQGKRFVYKFVCDLKTLIGYSAAELNRLVIECEQKKLARMQLHGIAQPVTAVALAATSLQADKEI
Turning to B1, the binding entry is “binds”.

The values are drawn from paper doi:10.1101/2021.02.10.430627.
